# Earlier results as cited in patent US20240189440A1, “TLR7 AND TLR8 AGONISTS FOR THE TREATMENT OF CANCER AND/OR INFECTIOUS DISEASES” (priority 2021, published 2024).
# At least one structure is not confirmed: it was looked up by name or label, or the drawing left a doubt.
# Test system: hepatis C virus
# Conditions: Pockros et al. 2007; cited from earlier work
structure (smiles),measurement,value
CCOCc1nc2c(N)nc3ccccc3c2n1CC(C)(C)O [resiquimod],Clinical outcome in treatment of hepatitis C virus,not successful
